Experimental data published in paper PMC2927601.
These are yes or no findings as the source states them, for the method shown. In cells and extracts the contact can be indirect. Some binding calls cover weakened binding; strength is not graded here.

Amino acid sequences for entries named in this document (tags omitted). A change or cut given only in a name is not applied to a line headed by its entry.
UniProt O75340: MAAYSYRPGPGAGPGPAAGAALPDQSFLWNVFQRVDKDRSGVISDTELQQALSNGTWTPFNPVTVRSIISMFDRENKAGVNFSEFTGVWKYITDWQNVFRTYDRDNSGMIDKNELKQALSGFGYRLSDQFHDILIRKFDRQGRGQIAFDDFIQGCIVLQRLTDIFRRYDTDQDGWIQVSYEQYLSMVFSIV
UniProt P50995: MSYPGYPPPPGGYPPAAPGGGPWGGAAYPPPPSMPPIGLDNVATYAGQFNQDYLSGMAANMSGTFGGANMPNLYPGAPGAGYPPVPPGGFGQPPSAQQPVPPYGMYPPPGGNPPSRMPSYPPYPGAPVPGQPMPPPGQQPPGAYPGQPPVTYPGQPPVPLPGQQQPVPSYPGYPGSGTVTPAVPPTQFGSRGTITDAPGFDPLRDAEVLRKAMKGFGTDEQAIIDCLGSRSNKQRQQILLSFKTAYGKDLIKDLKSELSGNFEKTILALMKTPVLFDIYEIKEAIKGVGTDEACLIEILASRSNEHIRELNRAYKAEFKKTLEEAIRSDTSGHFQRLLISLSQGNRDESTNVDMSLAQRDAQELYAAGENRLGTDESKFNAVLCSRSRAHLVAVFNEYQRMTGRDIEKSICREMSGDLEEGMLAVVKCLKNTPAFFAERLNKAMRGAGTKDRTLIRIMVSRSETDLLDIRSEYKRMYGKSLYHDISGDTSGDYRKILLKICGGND

How the values were obtained:
Assay in all cases: pull-down; GST-fused ALG-2 proteins on glutathione Sepharose beads, cleared lysates of HEK293 cells; pulldown products analysed by Western blotting with specific antibodies; as described previously [40]; only the target purified
[1] = biological target: GST-fused ALG-2 F122A mutant (human) (UniProt O75340)
[2] = biological target: GST-fused ALG-2 F122W mutant (human) (UniProt O75340)
GST-ALG-2^F122S (human) = GST-ALG-2^F122S (human) (UniProt O75340)
[3] = biological target: GST-fused ALG-2 F122G mutant (human) (UniProt O75340)
[4] = biological target: GST-fused ALG-2, wild type (human) (UniProt O75340)

Measured: binding

annexin A11, endogenous protein (from UniProt P50995 1-505)
binds: all assays above
